# At least one compound was matched to its structure with a doubt left.
# Key:
# [1] = test system: Pkd2 mice; assay: 9-week treatment of Pkd2 mice: body weight, survival, cysts, fibrosis, kidney fluorescence; details: H&E, 9 weeks of treatment, compared to Pkd2 vehicle
# [2] = test system: ADPKD cells; assay: Spectral karyotyping for polyploidy; assay type: cell-based, human
# [3] = test system: Pkd2 mice; assay: CT imaging of total kidney volume; assay type: in vivo; details: CT at 3, 6 and 9 weeks
# Experimental: FIGS. 20A-C. FIGS. 20A-B depict coronal and trans-axial CT imaging of mice at 3, 6 and 9 weeks of treatment time. FIG. 20C: Plots showing the total kidney volume at 3, 6 and 9 weeks of treatment time.
# Because RapaTEMPO-NPs were applied prior to severe cystic development in the kidneys, lateral (FIG. 20A) and cross-section (FIG. 20B) of computerized tomography scans were performed in the kidneys at 3-, 6- and 9-weeks to monitor progression of changes in kidney volume. […] Longitudinal effects on blood pressure were also monitored throughout the treatment period (FIG. 21). The increase in blood pressure in kidney-specific Pkd2 seemed to be associated with expansion of renal cysts leading to compression in renal vasculature and eventual RAAS activation.
# [4] = test system: ADPKD cells; assay: 3D cyst culture in Matrigel/collagen with forskolin and EGF; assay type: cell-based, human; details: 3D culture, treatment from day 1, evaluated on day 6
# Experimental: FIGS. 2A-C depict functional nanoparticle-targeting in 3-dimensional culture. FIG. 2A: Human renal epithelia from normal kidney (NK) cells and autosomal dominant polycystic kidney disease (ADPKD) were grown to form cysts in a 3D Matrigel system with collagen in the presence of forskolin and EGF for 1 day followed by different treatments for 5 additional days. All representative live DIC and fluorescence images were taken at 6 days. Control treatment was denoted as vehicle (saline-only). 3D non-cyst/cyst cultures were imaged for nanoparticles uptake, cyst formation and cysts size measurements. The inset images at the right showing the enlarged cystic area taken from the white square boxes selected from the images at the left. Scale bar, 200 μm. FIG. 2B: Percent number of cysts were measured and plotted in bar graphs; each point represents an averaged of replicate.
# 3D cyst culture and live imaging. […] To assess the effects of vehicle (saline) and different plain and drug-loaded nanoparticles (1 mg/mL) were added (10 μL) on day one after stimulation with forskolin and cyst formation were evaluated on day 6. The cyst growth was observed by using Nikon live cell microscope using its DIC and fluorescence capabilities. […] Using ×20 lens, the number of cysts and their sizes (in diameter) in each well was counted and measured using an ocular scale from the Nikon Eclipse Imaging Software. […]
# [5] = Drug release from NPs by dialysis and HPLC; assay type: physicochemical; details: monitored over a 7-day period; growth media with serum
# Text: FIGS. 1A-I depict synthesis and characterization of polycystic kidney targeted nanoparticles. FIG. 1A: Schematic representation of synthesis, drug loading and surface functionalization of PLGA nanoparticles. FIG. 1B: The morphological features of the plain (unloaded) and drugs-loaded PLGA nanoparticles were imaged with scanning electron microscopy. Scale bars, 200 nm. FIG. 1C: Hydrodynamic size distribution of unloaded and drugs-loaded nanoparticles. FIG. 1D: Average zeta-potential measurements of unloaded and drugs-loaded nanoparticles. FIG. 1E: Average hydrodynamic size stability measurements of nanoparticles in saline (PBS), mouse plasma and growth media (DMEM) containing fetal bovine serum. […]
# For both rapamycin and 4-hydoxy-TEMPO encapsulated nanoparticles (RapaTEMPO-NPs) were synthesized by a combination (1000 mg) and rapamycin (20 mg) and 4-hydoxy-TEMPO (20 mg) (polymer to total drug ratio […]) was chosen. […] XPS spectra of the samples were recorded on a Kratos Analytical AXIS Supra system with a monochromated Al/Ag X-ray source (Al target). Total survey spectra were recorded in a range from 1300 to −5 eV binding energy (dwell time 200 ms, step size 1 eV, 2 sweeps), and all the region scans were conducted with suitable ranges (dwell time 500 ms, step size 0.05 eV and 5 sweeps). […]
smiles,measurement,setting,value
CO[C@H]1C[C@@H]2CC[C@@H](C)[C@@](O)(O2)C(=O)C(=O)N2CCCC[C@H]2C(=O)O[C@H]([C@H](C)C[C@@H]2CC[C@@H](O)[C@H](OC)C2)CC(=O)[C@H](C)/C=C(\C)[C@@H](O)[C@@H](OC)C(=O)[C@H](C)C[C@H](C)/C=C/C=C/C=C/1C [rapamycin],Cyst number,[1],significantly decreased cyst number
same,Effect on polyploidy,[2],did not seem vary much
same,Total kidney volume over treatment time,[3],promising effect at 3- and 6-weeks
same,Cyst number and size,[4],significantly decreased the number and size of cysts
same,Time of maximum drug release from NPs,[5],about 3 days
